Measured data: PubChem BioAssay AID686943 (Drosophila RNAi Screening Center, 2013)
Screen: 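Fly genes whose loss alters ERK activation after insulin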 (primary screen). System: Drosophila S2R+ haemocyte-like cells expressing YFP-tagged ERK (Rolled). Reagent: long dsRNA against Drosophila genes. Treatment: insulin stimulation versus unstimulated cells; dose and duration not given. Measurement: 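Per-plate z-scores of phospho-ERK immunostaining normalised to YFP-tagged ERK, measured with and without insulin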. Scale: replicate 1, z-score of dpERK with insulin and replicate 2, z-score of dpERK with insulin: higher = more active ERK per ERK-YFP after insulin; replicate 1, z-score of dpERK under basal conditions: higher = more basal active ERK per ERK-YFP.
In all, the deposit lists about 23,000 reagents; below is an unselected part of those that have a named target and a result. 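Extra replicates exist only for a retested subset of genes; insulin dose and duration not given; both raised and lowered dpERK matter.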 Reagents against one gene are numbered here. Names joined by + are all predicted targets of the reagent. Further read-outs or replicates are left out here. Not given: the amount of reagent, the time to read-out.

The opening 8 records, to show the layout:
| Gene | dsRNA no. | replicate 1, z-score of dpERK with insulin | replicate 2, z-score of dpERK with insulin | replicate 1, z-score of dpERK under basal conditions |
| --- | --- | --- | --- | --- |
| zf30C | 1 | -1.64 | -2.12 | 0.12 |
| Eh | 1 | 0.17 | -0.06 | -0.47 |
| CG14442 | 1 | -1.81 | -0.38 | 0.3 |
| SMC1 | 1 | 2.66 | -0.14 | -0.54 |
| Kpc1 | 1 | 0.49 | 0.1 | -0.72 |
| CG12325 | 1 | 0.16 | -0.2 | 0.69 |
| Klp61F | 1 | -3.27 | -1.39 | 2.98 |
| CG15332 | 1 | 0.01 | -0.02 | 1.13 |

Main list, repeating the preview:
| Gene | dsRNA no. | replicate 1, z-score of dpERK with insulin | replicate 2, z-score of dpERK with insulin | replicate 1, z-score of dpERK under basal conditions |
| --- | --- | --- | --- | --- |
| zf30C | 1 | -1.64 | -2.12 | 0.12 |
| Eh | 1 | 0.17 | -0.06 | -0.47 |
| CG14442 | 1 | -1.81 | -0.38 | 0.3 |
| SMC1 | 1 | 2.66 | -0.14 | -0.54 |
| Kpc1 | 1 | 0.49 | 0.1 | -0.72 |
| CG12325 | 1 | 0.16 | -0.2 | 0.69 |
| Klp61F | 1 | -3.27 | -1.39 | 2.98 |
| CG15332 | 1 | 0.01 | -0.02 | 1.13 |
| rau | 1 | -0.02 | -0.15 | -0.08 |
| CG7879 | 1 | -0.27 | 0.1 | -0.12 |
| LanB1 | 1 | 0.2 | 0.39 | 0.06 |
| His3.3A | 1 | -4.3 | -4.94 | -2.77 |
| Cp7Fb | 1 | -0.38 | 0.04 | 0.54 |
| FucT6 | 1 | -0.67 | -0.4 | 0.57 |
| LManII | 1 | 0.03 | 0.02 | 1.06 |
| CG7506 | 1 | 0.7 | 0.37 | 0.48 |
| Fem-1 | 1 | 0.01 | 0.67 | -1.05 |
| CG31832 | 1 | -0.25 | 0.23 | -0.65 |
| scra | 1 | -0.86 | 0.88 | 0.69 |
| a6 | 1 | -0.45 | -0.47 | -0.57 |
| CG9372 | 1 | -1.47 | 0.49 | -1.1 |
| CG34251 | 1 | 0.38 | -0.21 | 0.59 |
| CG34251 | 2 | 0.55 | -0.37 | 0.08 |
| Klp68D | 1 | -0.2 | 0.06 | 0 |
| CG4440 | 1 | 0.37 | 1.24 | -1.24 |
| PGRP-SC1b | 1 | 0.05 | 0.33 | -0.3 |
| CG30356 | 1 | -0.21 | 0.06 | -0.69 |
| rump | 1 | -0.72 | -0.16 | -0.99 |
| wdb | 1 | 0.96 | -1.51 | 0.55 |
| YL-1 | 1 | 1.41 | 1.09 | 0.35 |
| SmydA-7 | 1 | -0.45 | -0.02 | -0.03 |
| Bicra | 1 | -0.1 | 0 | 0.8 |
| fest | 1 | -1.81 | -1.06 | -0.41 |
| Chrac-16 | 1 | 0 | 1.56 | 0.86 |
| CG8924 | 1 | -1.82 | -1.13 | -0.08 |
| CG1632 | 1 | 0.32 | -0.69 | -0.11 |
| CG1632 | 2 | 0.36 | 0 | 0.17 |
| CG33255 (retired record) + CR42842 + hpRNA:CR32205 + 1 more | 1 | 0.49 | 0.22 | -1 |
| CG13614 | 1 | -0.18 | -0.09 | 0.67 |
| asRNA:Eig63F-2 + Eip63F-1 | 1 | -0.27 | -0.28 | -0.16 |
| Ars2 | 1 | -1.01 | 0.07 | -0.96 |
| CG4367 | 1 | 0.1 | -0.31 | -0.12 |
| MKP-4 | 1 | 0.21 | 0.5 | 0.58 |
| CG7272 | 1 | 1.04 | -0.1 | -0.84 |
| CG34015 | 1 | -0.05 | 0.19 | -0.47 |
| Dtwd2 | 1 | -0.04 | 0.54 | 1.75 |
| Trs20 | 1 | 0.11 | -0.01 | 2.6 |
| CG31769 | 1 | -0.35 | 0.52 | 0 |
| Dscam3 | 1 | -0.68 | -0.01 | 0.12 |
| Dscam3 | 2 | 0.37 | 0.43 | -0.44 |
| CG1532 | 1 | -0.06 | 1.09 | -0.06 |
| CG8617 | 1 | -0.84 | -0.65 | -1.01 |
| Nost | 1 | 1.22 | -0.1 | -0.58 |
| Nost | 2 | 1.02 | 0.58 | 0.1 |
| Femcoat | 1 | 0.27 | 0.63 | 1.02 |
| ArfGAP3 | 1 | -0.47 | -0.21 | 0.42 |
| bisc | 1 | -0.07 | -0.94 | -0.55 |
| CG14204 | 1 | -0.19 | -0.3 | -0.99 |
| CG34045 | 1 | 0.76 | 0.75 | 0.35 |
| CG3213 | 1 | -0.49 | 0.5 | 1.06 |
| RpS10b | 1 | -0.19 | -1.33 | -0.12 |
| Dph1 | 1 | -0.07 | -0.65 | 0.11 |
| Pi4KIIIalpha | 1 | -1.14 | -1.03 | -1.2 |
| CG43271 | 1 | 0.34 | 1.2 | -0.83 |
| CG43271 | 2 | 0.72 | 0.55 | -0.68 |
| CG17192 | 1 | 0.01 | -0.1 | -0.1 |
| Jheh3 | 1 | 0.41 | 0.49 | 1.93 |
| CG43146 (retired record) | 1 | 1.61 | 0.29 | 0.32 |
| dbf | 1 | -0.05 | 0.26 | -0.83 |
| CG15930 | 1 | 0.22 | 2.13 | 0.4 |
| CG4278 | 1 | -0.15 | 0.19 | -0.43 |
| CG15368 | 1 | -1.73 | -1.94 | 0.18 |
| scro | 1 | 0.53 | 0.29 | -0.5 |
| scro | 2 | -0.29 | -1.09 | -0.06 |
